Measurements as given in the supplement of paper PMC10849652.
This is one part of the list.

Chains of the proteins cited; added tags and fusions are not shown. Lines headed by an entry give the natural chain unless they say otherwise; changes in a name come on top.
UniProt Q15031: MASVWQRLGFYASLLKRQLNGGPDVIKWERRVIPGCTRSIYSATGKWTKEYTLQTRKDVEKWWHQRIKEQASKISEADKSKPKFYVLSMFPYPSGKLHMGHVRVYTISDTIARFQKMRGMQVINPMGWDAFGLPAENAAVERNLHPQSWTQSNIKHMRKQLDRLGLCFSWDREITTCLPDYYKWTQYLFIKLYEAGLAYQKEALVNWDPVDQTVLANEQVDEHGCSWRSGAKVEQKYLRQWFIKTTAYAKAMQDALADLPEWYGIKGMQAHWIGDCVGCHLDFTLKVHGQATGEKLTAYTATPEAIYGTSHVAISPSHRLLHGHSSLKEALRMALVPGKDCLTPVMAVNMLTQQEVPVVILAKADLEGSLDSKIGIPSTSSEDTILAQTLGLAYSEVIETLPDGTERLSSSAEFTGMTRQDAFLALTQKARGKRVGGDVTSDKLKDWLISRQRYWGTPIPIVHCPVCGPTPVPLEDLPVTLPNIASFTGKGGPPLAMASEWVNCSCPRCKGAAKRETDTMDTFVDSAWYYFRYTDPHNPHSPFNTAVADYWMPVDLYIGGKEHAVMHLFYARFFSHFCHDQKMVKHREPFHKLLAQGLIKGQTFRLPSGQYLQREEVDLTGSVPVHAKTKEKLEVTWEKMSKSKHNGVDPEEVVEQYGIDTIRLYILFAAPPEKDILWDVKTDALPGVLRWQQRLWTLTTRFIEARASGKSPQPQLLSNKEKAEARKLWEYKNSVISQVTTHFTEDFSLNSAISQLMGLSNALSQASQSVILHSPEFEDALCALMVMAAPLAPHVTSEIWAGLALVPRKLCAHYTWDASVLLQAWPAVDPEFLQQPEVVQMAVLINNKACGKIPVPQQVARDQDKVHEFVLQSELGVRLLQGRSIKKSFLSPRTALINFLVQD
UniProt Q86U70: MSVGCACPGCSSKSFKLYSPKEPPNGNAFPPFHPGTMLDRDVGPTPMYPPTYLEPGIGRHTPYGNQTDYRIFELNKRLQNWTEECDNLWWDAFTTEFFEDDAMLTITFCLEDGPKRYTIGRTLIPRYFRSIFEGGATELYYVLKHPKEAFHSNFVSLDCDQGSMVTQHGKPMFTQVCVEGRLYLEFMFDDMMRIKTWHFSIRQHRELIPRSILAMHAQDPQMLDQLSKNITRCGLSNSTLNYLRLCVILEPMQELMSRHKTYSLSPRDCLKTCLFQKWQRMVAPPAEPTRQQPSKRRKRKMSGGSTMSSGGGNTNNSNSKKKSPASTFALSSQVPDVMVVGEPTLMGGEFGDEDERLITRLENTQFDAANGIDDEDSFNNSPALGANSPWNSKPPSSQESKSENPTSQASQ
UniProt Q8N9N7: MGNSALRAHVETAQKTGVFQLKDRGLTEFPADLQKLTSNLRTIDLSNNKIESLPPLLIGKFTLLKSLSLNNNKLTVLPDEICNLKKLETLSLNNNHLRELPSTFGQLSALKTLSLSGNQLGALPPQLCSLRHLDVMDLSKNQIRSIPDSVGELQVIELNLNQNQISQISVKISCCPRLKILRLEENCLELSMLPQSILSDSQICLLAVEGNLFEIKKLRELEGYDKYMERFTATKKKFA
UniProt P07864: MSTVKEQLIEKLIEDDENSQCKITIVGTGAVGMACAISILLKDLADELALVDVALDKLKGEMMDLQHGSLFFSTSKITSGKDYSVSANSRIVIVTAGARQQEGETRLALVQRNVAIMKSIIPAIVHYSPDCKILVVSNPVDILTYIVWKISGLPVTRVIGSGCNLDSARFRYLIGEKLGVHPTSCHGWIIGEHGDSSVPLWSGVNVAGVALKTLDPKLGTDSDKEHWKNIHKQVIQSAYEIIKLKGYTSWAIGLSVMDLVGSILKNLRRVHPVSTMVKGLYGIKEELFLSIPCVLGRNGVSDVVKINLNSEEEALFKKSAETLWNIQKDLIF
UniProt Q96BZ8: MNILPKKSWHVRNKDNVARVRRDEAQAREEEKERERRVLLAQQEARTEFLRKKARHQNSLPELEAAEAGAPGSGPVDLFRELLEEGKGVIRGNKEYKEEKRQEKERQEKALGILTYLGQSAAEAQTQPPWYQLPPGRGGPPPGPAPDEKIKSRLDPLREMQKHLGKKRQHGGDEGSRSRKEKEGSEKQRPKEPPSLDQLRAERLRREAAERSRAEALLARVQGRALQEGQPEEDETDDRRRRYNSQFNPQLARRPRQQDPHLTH
UniProt O95777: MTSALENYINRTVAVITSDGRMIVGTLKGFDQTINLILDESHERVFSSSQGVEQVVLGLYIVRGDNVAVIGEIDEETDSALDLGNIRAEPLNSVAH
UniProt P30533, whole entry, looked up: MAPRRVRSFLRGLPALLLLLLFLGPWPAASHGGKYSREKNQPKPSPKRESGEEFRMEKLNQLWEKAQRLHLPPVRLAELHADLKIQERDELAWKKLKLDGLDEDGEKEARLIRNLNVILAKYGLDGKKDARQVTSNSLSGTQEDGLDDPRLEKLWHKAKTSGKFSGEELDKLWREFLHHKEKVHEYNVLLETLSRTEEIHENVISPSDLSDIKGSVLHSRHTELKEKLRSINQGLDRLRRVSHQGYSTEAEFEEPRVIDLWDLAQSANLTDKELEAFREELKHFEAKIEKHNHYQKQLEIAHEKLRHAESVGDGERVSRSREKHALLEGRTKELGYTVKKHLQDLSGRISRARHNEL
UniProt Q6P9F7: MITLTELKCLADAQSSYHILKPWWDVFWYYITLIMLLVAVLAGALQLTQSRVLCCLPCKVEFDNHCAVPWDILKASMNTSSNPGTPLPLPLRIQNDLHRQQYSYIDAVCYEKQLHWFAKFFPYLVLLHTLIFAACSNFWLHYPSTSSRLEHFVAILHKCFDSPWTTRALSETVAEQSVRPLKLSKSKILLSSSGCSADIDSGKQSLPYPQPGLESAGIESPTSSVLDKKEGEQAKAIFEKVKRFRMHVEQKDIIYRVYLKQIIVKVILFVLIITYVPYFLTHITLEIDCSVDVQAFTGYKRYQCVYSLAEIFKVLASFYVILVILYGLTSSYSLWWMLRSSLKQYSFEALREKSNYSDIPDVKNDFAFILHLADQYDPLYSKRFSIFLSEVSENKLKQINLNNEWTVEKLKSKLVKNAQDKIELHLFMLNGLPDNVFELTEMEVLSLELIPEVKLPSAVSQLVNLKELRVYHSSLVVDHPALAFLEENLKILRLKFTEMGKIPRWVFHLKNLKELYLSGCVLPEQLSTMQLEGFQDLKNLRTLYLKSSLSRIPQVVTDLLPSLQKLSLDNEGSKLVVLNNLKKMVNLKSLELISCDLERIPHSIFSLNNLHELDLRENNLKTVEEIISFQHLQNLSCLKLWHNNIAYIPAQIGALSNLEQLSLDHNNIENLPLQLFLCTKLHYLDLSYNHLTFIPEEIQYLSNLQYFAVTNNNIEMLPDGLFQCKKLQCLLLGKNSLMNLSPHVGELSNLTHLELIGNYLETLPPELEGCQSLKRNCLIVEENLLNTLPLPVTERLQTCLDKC
UniProt Q8TDW0: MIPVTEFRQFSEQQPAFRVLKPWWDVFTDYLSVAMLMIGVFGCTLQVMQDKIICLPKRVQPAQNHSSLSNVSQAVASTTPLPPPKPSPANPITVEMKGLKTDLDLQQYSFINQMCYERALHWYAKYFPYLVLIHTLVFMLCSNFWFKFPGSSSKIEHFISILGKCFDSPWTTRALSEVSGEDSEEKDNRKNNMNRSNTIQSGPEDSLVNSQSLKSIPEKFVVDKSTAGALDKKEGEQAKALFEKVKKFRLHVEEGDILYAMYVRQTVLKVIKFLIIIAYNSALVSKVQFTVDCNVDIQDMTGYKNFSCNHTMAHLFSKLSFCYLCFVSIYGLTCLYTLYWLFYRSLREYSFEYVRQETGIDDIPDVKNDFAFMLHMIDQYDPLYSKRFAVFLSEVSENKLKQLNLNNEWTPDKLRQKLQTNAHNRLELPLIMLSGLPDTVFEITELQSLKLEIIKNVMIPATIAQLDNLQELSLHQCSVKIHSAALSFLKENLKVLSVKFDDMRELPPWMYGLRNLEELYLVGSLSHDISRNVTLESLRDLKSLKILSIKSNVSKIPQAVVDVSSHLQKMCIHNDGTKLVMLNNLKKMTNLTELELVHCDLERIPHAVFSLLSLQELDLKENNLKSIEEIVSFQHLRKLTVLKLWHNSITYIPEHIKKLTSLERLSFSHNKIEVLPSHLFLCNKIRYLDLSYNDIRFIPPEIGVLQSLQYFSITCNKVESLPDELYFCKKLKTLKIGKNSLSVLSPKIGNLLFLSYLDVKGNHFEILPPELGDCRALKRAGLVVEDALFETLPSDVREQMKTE
UniProt P62312: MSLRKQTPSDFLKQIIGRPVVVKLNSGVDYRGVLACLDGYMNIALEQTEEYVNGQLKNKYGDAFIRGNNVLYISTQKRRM
UniProt O95202: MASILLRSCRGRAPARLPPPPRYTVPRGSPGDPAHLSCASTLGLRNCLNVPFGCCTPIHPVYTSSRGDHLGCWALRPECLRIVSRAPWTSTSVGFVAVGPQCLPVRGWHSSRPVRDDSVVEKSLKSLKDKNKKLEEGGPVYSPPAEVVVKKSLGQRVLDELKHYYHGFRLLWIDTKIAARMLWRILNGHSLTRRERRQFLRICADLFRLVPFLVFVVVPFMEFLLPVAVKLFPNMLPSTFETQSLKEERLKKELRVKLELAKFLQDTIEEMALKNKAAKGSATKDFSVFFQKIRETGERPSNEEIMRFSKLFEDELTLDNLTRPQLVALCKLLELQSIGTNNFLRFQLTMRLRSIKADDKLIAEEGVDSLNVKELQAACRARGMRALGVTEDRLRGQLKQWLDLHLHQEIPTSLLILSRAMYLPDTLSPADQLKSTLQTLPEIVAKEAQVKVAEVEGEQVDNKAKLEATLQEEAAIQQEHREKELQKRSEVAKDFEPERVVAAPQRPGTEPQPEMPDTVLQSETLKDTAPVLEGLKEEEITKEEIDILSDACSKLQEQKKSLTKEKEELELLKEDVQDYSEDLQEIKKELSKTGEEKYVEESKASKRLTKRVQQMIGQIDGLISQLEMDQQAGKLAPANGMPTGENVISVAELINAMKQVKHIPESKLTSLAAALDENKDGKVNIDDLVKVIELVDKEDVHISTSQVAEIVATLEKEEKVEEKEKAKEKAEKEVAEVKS
UniProt P20700: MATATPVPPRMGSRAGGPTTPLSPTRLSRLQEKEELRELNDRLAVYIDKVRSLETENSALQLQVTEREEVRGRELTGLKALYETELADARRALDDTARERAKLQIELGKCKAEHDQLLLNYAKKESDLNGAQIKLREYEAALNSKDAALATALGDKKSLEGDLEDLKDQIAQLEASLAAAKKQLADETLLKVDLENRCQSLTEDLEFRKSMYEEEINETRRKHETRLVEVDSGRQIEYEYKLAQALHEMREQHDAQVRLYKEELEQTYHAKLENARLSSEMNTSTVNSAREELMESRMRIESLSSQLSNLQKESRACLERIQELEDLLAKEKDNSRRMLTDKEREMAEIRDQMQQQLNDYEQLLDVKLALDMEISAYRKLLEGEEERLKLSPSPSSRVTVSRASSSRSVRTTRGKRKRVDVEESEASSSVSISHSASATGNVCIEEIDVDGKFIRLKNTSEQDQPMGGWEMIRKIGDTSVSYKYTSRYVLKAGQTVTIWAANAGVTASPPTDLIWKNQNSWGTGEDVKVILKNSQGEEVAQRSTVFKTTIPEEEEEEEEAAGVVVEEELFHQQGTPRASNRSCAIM
UniProt P17931, whole entry, looked up: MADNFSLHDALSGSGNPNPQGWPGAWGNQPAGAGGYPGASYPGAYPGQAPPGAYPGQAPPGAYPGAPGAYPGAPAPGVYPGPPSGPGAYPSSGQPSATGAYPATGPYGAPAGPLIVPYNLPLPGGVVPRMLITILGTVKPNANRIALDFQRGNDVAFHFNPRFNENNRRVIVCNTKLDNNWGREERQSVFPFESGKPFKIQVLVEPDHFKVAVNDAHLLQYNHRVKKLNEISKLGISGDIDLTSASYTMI
UniProt O60294: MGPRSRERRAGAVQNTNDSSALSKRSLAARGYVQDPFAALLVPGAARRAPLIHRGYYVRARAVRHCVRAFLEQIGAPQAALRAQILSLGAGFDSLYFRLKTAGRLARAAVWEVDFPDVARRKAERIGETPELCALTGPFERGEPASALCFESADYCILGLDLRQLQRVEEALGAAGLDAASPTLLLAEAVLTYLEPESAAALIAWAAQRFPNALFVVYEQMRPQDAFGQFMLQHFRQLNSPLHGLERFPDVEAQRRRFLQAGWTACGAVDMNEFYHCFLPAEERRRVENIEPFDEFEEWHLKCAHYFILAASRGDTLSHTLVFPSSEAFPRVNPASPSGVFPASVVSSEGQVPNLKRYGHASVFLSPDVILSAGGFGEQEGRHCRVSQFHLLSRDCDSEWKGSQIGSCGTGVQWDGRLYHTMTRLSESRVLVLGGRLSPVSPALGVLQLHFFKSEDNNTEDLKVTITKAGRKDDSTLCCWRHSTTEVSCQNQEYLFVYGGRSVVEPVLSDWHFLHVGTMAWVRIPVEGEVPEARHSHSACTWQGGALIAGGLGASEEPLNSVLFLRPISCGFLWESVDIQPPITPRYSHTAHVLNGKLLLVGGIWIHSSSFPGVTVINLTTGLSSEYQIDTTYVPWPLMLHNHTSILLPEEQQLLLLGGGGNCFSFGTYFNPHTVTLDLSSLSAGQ

compound: C#Cc1cccc(Nc2ncnc3cc(OCCOC)c(OCCOC)cc23)c1 [erlotinib]; assay: log2 fold change, soluble protein after heating vs DMSO (PISA); higher = thermal stabilisation; K562 lysate, 10 uM; active = over 0.2 and 3.5 SD of the protein, either way, in both replicates (recomputed)
How it was run: (§1)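 K562 pellets were dounce-homogenised in PBS pH 7.4 containing 1 mM MgCl2, and the crude extract, at 1 mg/mL protein, was exposed to 10 μM compound for 30 min. Aliquots were heated for 3 min across 48°C-58°C, pooled, brought to 0.5% NP-40 at 4°C and spun at 21,000xg for 90 min, with the supernatant taken as soluble protein. TMTpro 16plex LC-MS/MS with equalised channel sums quantified that protein. Values are log-two fold changes in thermal stability relative to solvent controls, taken from duplicates.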

log2 fold change, inactive:
LIG1 (UniProt P18858) 0.001
LMTK2 (UniProt Q8IWU2) -0.075
LMNA (UniProt P02545) -0.01
LARS2 (UniProt Q15031) 0.027
LINGO1 (UniProt Q96FE5) 0.036
LDB1 (UniProt Q86U70) 0.049
LRRC57 (UniProt Q8N9N7) -0.026
LDHC (UniProt P07864) 0.02
LENG1 (UniProt Q96BZ8) -0.019
LRRC8A (UniProt Q8IWT6) 0.018
LRWD1 (UniProt Q9UFC0) -0.031
LRRC40 (UniProt Q9H9A6) -0.014
LCP2 (UniProt Q13094) -0.012
LRCH3 (UniProt Q96II8) 0.043
LSM8 (UniProt O95777) -0.034
LIN54 (UniProt Q6MZP7) 0.047
LRPAP1 (UniProt P30533) -0.051
LRRC8B (UniProt Q6P9F7) 0.078
LSS (UniProt P48449) -0.023
LRRC8C (UniProt Q8TDW0) -0.087
LPIN1 isoform 7 (UniProt Q14693) 0.047
LRRFIP2 (UniProt Q9Y608) -0.033
LSM6 (UniProt P62312) -0.012
LSM1 (UniProt O15116) -0.02
LMAN1 (UniProt P49257) -0.011
LRRC14 (UniProt Q15048) 0.031
LETM1 (UniProt O95202) -0.012
LMNB1 (UniProt P20700) -0.029
LPCAT3 (UniProt Q6P1A2) -0.025
LIG4 (UniProt P49917) 0.107
LRCH4 (UniProt O75427) 0.006
LMO2 isoform 3 (UniProt P25791) -0.01
LGALS3 (UniProt P17931) 0.065
LSM3 (UniProt P62310) 0.008
LCP1 (UniProt P13796) -0.012
LCMT2 (UniProt O60294) 0.129
LDAH isoform 2 (UniProt Q9H6V9) -0.017
LIN7C (UniProt Q9NUP9) 0.038

compound: C/C(=N\NC(=O)C1=CC(=CC=C1)S(=O)(=O)N2CCOCC2)/C3=C(C=CC(=C3)Cl)O; assay: as above
How it was run: as §1

log2 fold change, inactive:
LIG1 (UniProt P18858) -0.001
LMTK2 (UniProt Q8IWU2) 0.057
LMNA (UniProt P02545) -0.006
LARS2 (UniProt Q15031) 0.033
LINGO1 (UniProt Q96FE5) 0.09
LDB1 (UniProt Q86U70) -0.024
LRRC57 (UniProt Q8N9N7) 0.032
LDHC (UniProt P07864) -0.361
LENG1 (UniProt Q96BZ8) -0.052
LRRC8A (UniProt Q8IWT6) 0.026
LRWD1 (UniProt Q9UFC0) -0.002
LRRC40 (UniProt Q9H9A6) 0.009
LCP2 (UniProt Q13094) -0.034
LRCH3 (UniProt Q96II8) 0.047
LSM8 (UniProt O95777) 0.003
LIN54 (UniProt Q6MZP7) -0.23
LRPAP1 (UniProt P30533) -0.006
LRRC8B (UniProt Q6P9F7) 0.106
LSS (UniProt P48449) 0.057
LRRC8C (UniProt Q8TDW0) -0.033
LPIN1 isoform 7 (UniProt Q14693) -0.046
LRRFIP2 (UniProt Q9Y608) 0.004
LSM6 (UniProt P62312) -0.068
LSM1 (UniProt O15116) 0.073
LMAN1 (UniProt P49257) -0.018
LRRC14 (UniProt Q15048) -0.035
LETM1 (UniProt O95202) 0.061
LMNB1 (UniProt P20700) 0.019
LPCAT3 (UniProt Q6P1A2) 0.169
LIG4 (UniProt P49917) 0.014
LRCH4 (UniProt O75427) 0.038
LMO2 isoform 3 (UniProt P25791) -0.027
LGALS3 (UniProt P17931) 0.418
LSM3 (UniProt P62310) -0.073
LCP1 (UniProt P13796) 0.002
LCMT2 (UniProt O60294) 0.035
LDAH isoform 2 (UniProt Q9H6V9) -0.015
LIN7C (UniProt Q9NUP9) -0.053
